Reference: PMC6925144, “A prospective compound screening contest identified broader inhibitors for Sirtuin 1” (Scientific Reports, 2019)
The full ranking holds about 3,200 compounds; the median of “TSA(without NAD+) / Primary screening (TSA) / delta Tm (K)” is about -0.07, and the highest 2% start at about 0.37. The list shows a part of the results.

Chains of the proteins cited; added tags and fusions are not shown. Residues count along the entry.
UniProt Q96EB6, 2-747 limits assumed: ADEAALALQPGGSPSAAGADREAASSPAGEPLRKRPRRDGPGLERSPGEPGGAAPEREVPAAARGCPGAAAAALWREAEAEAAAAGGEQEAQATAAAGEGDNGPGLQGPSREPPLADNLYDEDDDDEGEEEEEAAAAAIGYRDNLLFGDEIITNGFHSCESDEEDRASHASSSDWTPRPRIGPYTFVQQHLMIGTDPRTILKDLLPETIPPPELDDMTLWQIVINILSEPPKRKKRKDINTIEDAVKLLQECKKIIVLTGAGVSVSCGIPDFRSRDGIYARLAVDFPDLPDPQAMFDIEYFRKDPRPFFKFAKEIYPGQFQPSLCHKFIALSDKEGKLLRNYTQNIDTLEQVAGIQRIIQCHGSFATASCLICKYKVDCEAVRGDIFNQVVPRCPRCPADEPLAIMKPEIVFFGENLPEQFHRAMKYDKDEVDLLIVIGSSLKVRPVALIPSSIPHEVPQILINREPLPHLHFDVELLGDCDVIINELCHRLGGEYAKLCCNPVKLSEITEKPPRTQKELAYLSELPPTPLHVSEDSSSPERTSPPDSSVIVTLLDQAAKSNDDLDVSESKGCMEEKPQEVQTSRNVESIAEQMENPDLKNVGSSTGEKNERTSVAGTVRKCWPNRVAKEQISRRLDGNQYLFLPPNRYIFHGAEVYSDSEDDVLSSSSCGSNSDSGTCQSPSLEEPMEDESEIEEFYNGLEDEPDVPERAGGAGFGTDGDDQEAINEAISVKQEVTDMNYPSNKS

molecular target: NAD-dependent deacetylase Sirtuin 1 (human, UniProt Q96EB6); test: primary screen, delta tm; parameters: single well (n = 1); conditions: 10 µM
Method in brief: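 Thermal shift of Sirtuin 1 measured without NAD+, compound at 10 µM (n = 1); value is ΔTm, with hits defined as ΔTm > 0.45 K or < −1.5 K. Hits retested at 5, 10, 20 µM (n = 4) and counterscreened on bovine carbonic anhydrase and ABL1 SH2 domain.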

| SMILES | TSA(without NAD+) / Primary screening (TSA) / delta Tm (K) |
| --- | --- |
| O=C1/C(=C\c2ccc(Br)cc2F)COc2ccccc21 | 0.18 |
| COc1ccc(S(=O)(=O)Nc2ccc(C(=O)NCC(=O)NCc3nnc4ccccn34)cc2)cc1 | -0.03 |
| COc1ccc(OC)c(C2C(C(=O)/C=C/c3ccco3)=C(O)C(=O)N2CCCN2CCOCC2)c1 (centres unmarked) | -0.03 |
| Cc1ccc(C(=O)C2=C(O)C(=O)N(CCCN3CCOCC3)C2c2ccccn2)o1 (centres unmarked) | 0.09 |
| O=C(C1=C(O)C(=O)N(CCCN2CCOCC2)C1c1ccco1)c1ccc(F)cc1 (centres unmarked) | -0.08 |
| O=C(Nc1cccnc1)c1ccc(F)cc1Br | -0.18 |
| COc1ccc(OC)c(C=C2C(=O)NC(=S)NC2=O)c1 | -0.24 |
| Cc1noc(C)c1CC(=O)OCc1cn(-c2ccccc2)nc1-c1ccc(Cl)cc1 | 0.22 |
| Cc1[nH]c2ccccc2c1C(=O)CN1CCCC(C(N)=O)C1 (centres unmarked) | -0.15 |
| Cc1ccc(CCC2CCNCC2)cc1 | -0.23 |
| COc1cccc2cc(C(=O)C3=C(O)C(=O)N(CCCN4CCOCC4)C3c3ccncc3)oc12 (centres unmarked) | 0.02 |
| C[C@@H](N)CCO | -0.18 |
| N#Cc1ccc(C(=O)Nc2c(Cl)cccc2Cl)cc1 | 0.07 |
| O=C(Nc1ccc(N2CCN(Cc3ccccc3)CC2)cc1)c1cccc(-n2cnnn2)c1 | -0.08 |
| O=C(Nc1cccc(S(=O)(=O)N2CCOCC2)c1)C1=COCCO1 | 0.03 |
| NCCC[C@@H](N)C(=O)O | -0.12 |
| Cc1nnc(N2CCN(c3ncc(Br)cn3)CC2)c(C(N)=O)c1C | -0.31 |
| NCC1(CN)CCCCC1 | -0.23 |
| Cc1ccc2[nH]c3c(c2c1)CC(N)CC3 (centres unmarked) | -0.08 |
| O=C(CSc1nnc(-c2ccccc2)o1)NCCCc1ccccc1 | -0.18 |
| COc1ccc(C(=O)C2=C(O)C(=O)N(CCCN3CCOCC3)C2c2ccccc2)cc1C (centres unmarked) | 0.06 |
| O=C(C1CCN(c2cc(=O)n3ccccc3n2)CC1)N1CCCC1 | -0.05 |
| CC(=O)NCCC(=O)C(C#N)C(=O)c1c[nH]c2cc(Cl)ccc12 (centres unmarked) | -0.32 |
| COc1cccc(C(=O)C2=C(O)C(=O)N(CCCN3CCOCC3)C2c2ccncc2)c1 (centres unmarked) | -0.18 |
| CC(NC(=O)Cc1cc2ccccc2[nH]c1=O)c1ccc2ccccc2c1 (centres unmarked) | -0.14 |
| CCCOc1ccc(C2C(C(=O)c3ccccc3)=C(O)C(=O)N2CCCN2CCOCC2)cc1 (centres unmarked) | 0.07 |

| SMILES | TSA(without NAD+) / Primary screening (TSA) / delta Tm (K) |
| --- | --- |
| Cc1nnnn1Cc1cn2c(C)cccc2n1 | -0.23 |
| O=C(NCC1CC1)c1ccc2[nH]c3c(c2c1)CCCCC3 | -0.12 |
| CCOC(=O)c1oc2ccccc2c1COC(=O)Cn1cnnn1 | -0.33 |
| N#Cc1c(Cn2nnc3ccccc3c2=O)cn2ccccc12 | 0.07 |
| Cc1nsc(NCc2cccnc2N2CCC(C(N)=O)CC2)n1 | 0.12 |
| O=C1CCC(C(=O)N(C2CCCC2)C2CC2)N1 (centres unmarked) | -0.15 |
| CC(Oc1ccc(F)c(Cl)c1)C(N)=O (centres unmarked) | -0.17 |
| O=C(O)CCn1cnc2sccc2c1=O | -0.21 |
| O=C(O)CCSc1ccc(F)cc1 | -0.03 |
| O=C(Nc1cc(S(=O)(=O)N2CCOCC2)ccc1OCC(F)(F)F)C1=COCCO1 | 0.07 |
| O=C(c1cnc2c3ccccc3nn2c1)c1ccccc1O | 0.06 |
| CCC(C)NC (centres unmarked) | -0.18 |
| CC1CN(Cc2ccc(F)cc2)CCN1C(C)c1nc(C2CC2)no1 (centres unmarked) | 0.08 |
| CCOc1ccc(C2C(C(=O)c3ccco3)=C(O)C(=O)N2CCCN2CCOCC2)cc1 (centres unmarked) | -0.13 |
| CN(C(=O)CSc1nnc(NCc2ccco2)s1)C1CCCc2ccccc21 (centres unmarked) | -0.03 |
| O=C(NC1(C(=O)N2CCN(C(=O)c3cnccn3)CC2)CCOC1)OCc1ccccc1 (centres unmarked) | -0.12 |
| N#Cc1ccc(CN2CCC(CCc3ccc(O)cc3)CC2)cc1 | 0.08 |
| Cc1[nH]c2ccc(C(=O)O)cc2c1C | -0.13 |
| C#CCCN1CCN(C(C)C(=O)N(C)C(C)C)CC1 (centres unmarked) | -0.24 |
| Cc1ccc(N(C)S(=O)(=O)c2cccc(C(=O)Nc3ccc(Br)c(C)c3)c2)cc1 | 0.48 |
| Cc1ccc(OCCNC(=O)Cc2coc3cc4c(cc23)CCC4)cc1 | -0.07 |
| OCn1cnc2ccccc21 | -0.31 |
| Cc1ccc(OCC(O)Cn2c(C(F)(F)F)ccc(C(N)=O)c2=O)cc1 (centres unmarked) | -0.13 |
| CCCOc1ccc2cc(C(=O)c3ccc(N(C)S(C)(=O)=O)cc3)oc2c1 | -0.05 |
| COc1ccc(N)c(OC)c1 | -0.02 |
| Cc1ccc(-n2nnnc2SCc2nc3c(cnn3-c3ccccc3)c(=O)[nH]2)cc1 | -0.15 |

Gathered by group: those above with a COOH group.

| SMILES | TSA(without NAD+) / Primary screening (TSA) / delta Tm (K) |
| --- | --- |
| NCCC[C@@H](N)C(=O)O | -0.12 |
| O=C(O)CCn1cnc2sccc2c1=O | -0.21 |
| O=C(O)CCSc1ccc(F)cc1 | -0.03 |
| Cc1[nH]c2ccc(C(=O)O)cc2c1C | -0.13 |

Later entries:

| SMILES | TSA(without NAD+) / Primary screening (TSA) / delta Tm (K) |
| --- | --- |
| CCc1nn2c(=O)cc(COC(=O)C(O)(c3ccccc3)c3ccccc3)nc2s1 | -0.08 |
| N#CCNC(=O)c1ccc2[nH]c3c(c2c1)CCCC3 | -0.01 |
| COc1cccc(C(=O)OC(C)C(=O)Nc2ccc(C(N)=O)cc2)c1OC (centres unmarked) | 0.12 |
| CN(C)C(=O)N1CCCC(C(=O)Nc2ccc3c(c2)-c2ccccc2C3)C1 (centres unmarked) | -0.23 |
| Cc1nc(-c2ccccn2)[nH]c(=O)c1CC(=O)NCCc1cccc2cccnc12 | -0.07 |
| CN(c1ccccc1)S(=O)(=O)c1cccc(C(=O)Nc2ccccc2)c1 | 0.12 |
| CCc1ccc(C(N)=S)cc1 | -0.22 |
| CCc1ncc(F)c(Cl)n1 | -0.22 |
| CCn1cc(C2CCN(C(=O)Cc3cnc4ccccc4c3)CC2)cn1 | -0.17 |
| COC(C)CN (centres unmarked) | -0.17 |
| Cc1oc(C)c(C(=O)NCc2cccc(NC(=O)CN(C)C)c2)c1C | -0.18 |
| Nc1nc(-c2cc3ccccc3oc2=O)nc2c1c(=O)oc1ccccc12 | 0.08 |
| CC(N)CCN(C)C (centres unmarked) | -0.11 |
| Cc1oc(-c2ccccc2)nc1CN1CCN(c2nncc3ccccc23)CC1 | -0.05 |
| Cc1c(Cl)cccc1NC(=O)CNC(N)=O | -0.28 |
| COc1cccc(CSc2nc3ccsc3c(=O)n2C)c1 | -0.13 |
| CCOc1cc(N2CCOCC2)c(OCC)cc1NC(=O)C1=COCCO1 | -0.15 |
| CCNc1ccnc(CSc2nc3ccsc3c(=O)n2C)c1 | 0.15 |
| COC(=O)CNC(=O)c1cccc(NC(=O)CCc2nnc(-c3ccc(Cl)cc3)o2)c1 | 0.02 |
| O=C1/C(=C/c2cccc(Br)c2)Oc2cc(O)ccc21 | 0.19 |
| CC(SCc1cccc2ccccc12)C(=O)Nc1ncccn1 (centres unmarked) | -0.17 |
| O=C(OCc1ccccc1)c1c[nH]c2ccccc12 | -0.24 |
| O=C(COC(=O)c1ccc(S(=O)(=O)N2CCCc3ccccc32)cc1)NC12CC3CC(CC(C3)C1)C2 | -0.05 |
| CCCC(N)CC (centres unmarked) | -0.11 |
| COc1cc(C(C)=O)ccc1OCc1noc(C)n1 | -0.24 |
| COC(=O)c1ccccc1Nc1ccnc(Cl)n1 | -0.15 |

| SMILES | TSA(without NAD+) / Primary screening (TSA) / delta Tm (K) |
| --- | --- |
| CCOCCNc1ncnc2ccsc12 | -0.04 |
| CCCC(C(=O)Nc1cc(C)on1)N1CCCC(c2nc(C)no2)C1 (centres unmarked) | -0.07 |
| Cc1ccc2oc(C3(C)Cc4ccccc4C(=O)O3)cc(=O)c2c1 (centres unmarked) | 0.02 |
| Cc1cccc(Cc2cnc(NC(=O)CCNC(=O)c3ccccc3Cl)s2)c1 | -0.12 |
| N#CCn1cc(C(F)(F)F)cc(Cl)c1=O | -0.28 |
| Cc1nc(C(C)NC(=O)c2ccc(Cl)s2)sc1C(=O)O (centres unmarked) | -0.08 |
| Cc1c(C(=O)NCC2CCCc3ccccc32)[nH]c2c1C(=O)CC(C)(C)C2 (centres unmarked) | -0.34 |
| O=C(COC(=O)C1=COCCO1)NC(c1ccccc1)c1ccccc1 | -0.14 |
| CC(C)c1ccccc1-n1c(SCC(=O)Nc2sccc2C(N)=O)nc2ccccc2c1=O | 0.22 |
| O=C1CCCN1Cc1ccc(-c2ccccc2CNC(=O)C23CC4CC(CC(C4)C2)C3)cc1 | -0.28 |
| CC1(CN)CCNC1 (centres unmarked) | -0.13 |
| Cc1sc2ncnc(N3CCC(C(=O)N(C)CC(=O)Nc4ccccc4Cl)CC3)c2c1C | -0.13 |
| O=C(Nc1cccc(S(=O)(=O)N2CCOCC2)c1)C(c1ccccc1)c1ccccc1 | 0.09 |
| NC(=O)C1CCN(c2ncnc3c2oc2ccccc23)CC1 | -0.13 |
| O=C(CSc1nc2ccccc2c(=O)n1CCCO)c1cc(F)ccc1F | -0.15 |
| COc1cc(NC(=O)c2ccco2)c(C(=O)OCC(=O)NC(C)C23CC4CC(CC(C4)C2)C3)cc1OC (centres unmarked) | -0.07 |
| Cc1nc(S)sc1CC(=O)N1CCCC(C)(O)C1 (centres unmarked) | -0.21 |
| N#CCOc1ccccc1/C=C1\Oc2cc(O)ccc2C1=O | -0.11 |
| Cc1c(Cl)cccc1NC(=O)CNc1cc(C(N)=O)c(Cl)cc1Cl | -0.03 |
| Cc1c2c(c(C#N)c3nc4ccccc4n13)CCCC2 | -0.23 |
| CCc1cccc(CC)c1NC(=O)C(c1ccccc1)c1ccccc1 | 0.03 |
| Cc1ccc(C)c(NC(=O)CN(C)C(=O)Cn2cnc3scc(-c4ccc(C)s4)c3c2=O)c1 | -0.02 |
| COc1ccc(C2C(C(=O)/C=C/c3ccco3)=C(O)C(=O)N2CCN2CCOCC2)cc1OC (centres unmarked) | 0.03 |

A second format for part of the listing above:
SMILES | TSA(without NAD+) / Primary screening (TSA) / delta Tm (K)
O=C(Nc1cccnc1)c1ccc(F)cc1Br | -0.18
COc1ccc(OC)c(C=C2C(=O)NC(=S)NC2=O)c1 | -0.24
